PubChem BioAssay AID248 (DTP/NCI, 2004)
The list is a part of this screen's results and no random one: it is rich in T/C values a quarter to a half above the control, in often repeated tests (any T/C) and in doses without a T/C. Other doses and runs of a compound stand elsewhere. T/C: endpoint of the treated group in % of that of the vehicle group. Some doses have a count of surviving animals in place of a T/C: the source files T/C as zero there, which appears to mark a toxic dose or a test without result, not a measured value. Some doses without a T/C left all or most animals alive at the check, yet need not have been tolerated: survival well below the control is almost never listed, so the zero probably covers shortened survival too. Counts of survivors are from the toxicity check (mostly the fifth day) where no day follows; animals may have died later. Schedules are NCI's codes, taken here to give the interval after Q, in days (D) or hours (H), and the number of doses after X. Some schedules carry Z or #; the key to these is not given. For survival time, the PubChem record calls one and a half times the control and up active, and a quarter to a half above the control has no call in these data; cut-offs in other NCI protocols can differ. Some T/C values carry the count of animals alive at the toxicity check (mostly the fifth day); without a count, all were alive then.

Test system: L1210 leukemia ip in BDF1 mice, survival T/C
Assay: NCI In Vivo Anticancer Drug Screen. Data for tumor model L1210 Leukemia (intraperitoneal) in B6D2F1 (BDF1) mice
Details: T/C endpoint: mean survival time, higher T/C = longer survival

**Q.** Which survivor count (dose: 100.0 mg/kg/injection, schedule: Q04DX003 (ip), vehicle: acetone) does the source give for `O=C1C=CC(=NCC(=O)OCc2ccccc2)O1` here?
**A.** Its survivor count is 6 of 6.

**Q.** What does the source list for `CCCCNc1ncnc2c1ncn2C1OC(CO)C(O)C1O` (stereo not given)?
**A.** T/C (dose: 100.0 mg/kg/injection, schedule: Q01DX005 (ip), vehicle: saline): 125 % of control [3 of 4 alive]; survivor count (dose: 200.0 mg/kg/injection, schedule: Q01DX005 (ip), vehicle: saline): 0 of 4

**Q.** With `CC(=O)NC(CSC(c1ccccc1)(c1ccccc1)c1ccccc1)C(=O)O` (stereo not given) as the compound, how does the survivor count (dose: 100.0 mg/kg/injection, schedule: Q01DX009 (ip), vehicle: saline) read?
**A.** The survivor count was 4 of 8.

**Q.** What about the survivor count (dose: 200.0 mg/kg/injection, schedule: Q01DX009 (ip), vehicle: saline) of the same compound?
**A.** The survivor count was 0 of 8.

**Q.** For `CCCCCCCCN=[N+](C)[O-]`, which survivor count (dose: 400.0 mg/kg/injection, schedule: Q04DX002 (ip), vehicle: Klucel (hydroxypropylcellulose) (HPC)) is on record?
**A.** Its survivor count is 1 of 3.

**Q.** With `CCCCCCCCCCCCCCCc1ccc(C(=O)C[n+]2ccccc2)cc1` as the compound, how does the survivor count (dose: 37.5 mg/kg/injection, schedule: Q01DX009 (ip), vehicle: saline with Tween-80) read?
**A.** The survivor count was 4 of 6.

**Q.** With `CCCC(=O)Nc1ccc(N=Nc2ccccc2)cc1` as the compound, how does the survivor count (dose: 400.0 mg/kg/injection, schedule: Q01DX009 (ip), vehicle: Klucel (hydroxypropylcellulose) (HPC)) read?
**A.** Its survivor count is 4 of 6.

**Q.** What does the source list for `Cc1ccc(S(=O)(=O)C2CCCCC2SC#N)cc1` (stereo not given)?
**A.** survivor count (dose: 100.0 mg/kg/injection, schedule: Q01DX009 (ip), vehicle: saline with Tween-80): 3 of 6; survivor count (dose: 200.0 mg/kg/injection, schedule: Q01DX009 (ip), vehicle: saline with Tween-80): 2 of 6; survivor count (dose: 400.0 mg/kg/injection, schedule: Q01DX009 (ip), vehicle: saline with Tween-80): 0 of 6

**Q.** Which survivor count (dose: 100.0 mg/kg/injection, schedule: Q04DX002 (ip), vehicle: DMSO) does the source give for `N#Cc1nccnc1C#N` here?
**A.** The survivor count was 3 of 3.

**Q.** And the survivor count (dose: 200.0 mg/kg/injection, schedule: Q04DX002 (ip), vehicle: DMSO)?
**A.** Its survivor count is 3 of 3.

**Q.** What about the survivor count (dose: 400.0 mg/kg/injection, schedule: Q04DX002 (ip), vehicle: DMSO) of the same compound?
**A.** The survivor count was 0 of 3.

**Q.** `O=C1OC(=O)C2C1C1(Cl)CC2(Cl)C(Cl)=C1Cl` (stereo not given) was tested. Which survivor count (dose: 300.0 mg/kg/injection, schedule: Q01DX009 (ip), vehicle: other) did it give?
**A.** Its survivor count is 0 of 6.

**Q.** How did the survivor count (dose: 200.0 mg/kg/injection, schedule: Q01DX001 (ip), vehicle: saline) turn out when `C=CCNC(=S)NNC(=O)CCCC(=O)NNC(=S)NCC=C` was run?
**A.** Its survivor count is 4 of 4.

**Q.** Which survivor count (dose: 50.0 mg/kg/injection, schedule: Q01DX001 (ip), vehicle: saline with Tween-80) does the source give for `N=C(N)c1ccc(OCCCCOc2ccc(NC(=O)Nc3ccc(S(=O)(=O)F)cc3Cl)cc2)cc1` here?
**A.** The survivor count was 6 of 6.

**Q.** Which survivor count (dose: 100.0 mg/kg/injection, schedule: Q01DX001 (ip), vehicle: Klucel (hydroxypropylcellulose) (HPC)) does the source give for `O=C(C[n+]1cccc2ccccc21)c1ccc(-c2ccccc2)cc1` here?
**A.** The survivor count was 2 of 6.

**Q.** What about the survivor count (dose: 400.0 mg/kg/injection, schedule: Q01DX001 (ip), vehicle: Klucel (hydroxypropylcellulose) (HPC)) of the same compound?
**A.** Its survivor count is 0 of 6.

**Q.** Which survivor count (dose: 37.5 mg/kg/injection, schedule: Q01DX009 (ip), vehicle: Klucel (hydroxypropylcellulose) (HPC)) does the source give for `C1=NCCCN2CCCCC12` (stereo not given) here?
**A.** The survivor count was 0 of 6.

**Q.** What about the survivor count (dose: 75.0 mg/kg/injection, schedule: Q01DX009 (ip), vehicle: Klucel (hydroxypropylcellulose) (HPC)) of the same compound?
**A.** The survivor count was 0 of 6.

**Q.** What about the survivor count (dose: 150.0 mg/kg/injection, schedule: Q01DX009 (ip), vehicle: Klucel (hydroxypropylcellulose) (HPC)) of the same compound?
**A.** The survivor count was 0 of 6.

**Q.** What about the survivor count (dose: 300.0 mg/kg/injection, schedule: Q01DX009 (ip), vehicle: Klucel (hydroxypropylcellulose) (HPC)) of the same compound?
**A.** The survivor count was 0 of 6.

**Q.** Which survivor count (dose: 200.0 mg/kg/injection, schedule: Q04DX003 (ip), vehicle: Klucel (hydroxypropylcellulose) (HPC)) does the source give for `CCC(C#N)(CCN(CC=C(C)C)CC=C(C)C)c1cccc2ccccc12` (stereo not given) here?
**A.** Its survivor count is 0 of 6.

**Q.** And the survivor count (dose: 400.0 mg/kg/injection, schedule: Q04DX003 (ip), vehicle: Klucel (hydroxypropylcellulose) (HPC))?
**A.** The survivor count was 0 of 6.

**Q.** With `Cc1ncnc(NN)c1N` as the compound, how does the survivor count (dose: 125.0 mg/kg/injection, schedule: Q01DX Z (ip), vehicle: methylcellulose (MC)) read?
**A.** Its survivor count is 0 of 6.

**Q.** For `O=C(/C(=C\Cl)CBr)c1ccccc1`, which survivor count (dose: 100.0 mg/kg/injection, schedule: Q04DX003 (ip), vehicle: saline with Tween-80) is on record?
**A.** The survivor count was 4 of 6.

**Q.** And the survivor count (dose: 200.0 mg/kg/injection, schedule: Q04DX003 (ip), vehicle: saline with Tween-80)?
**A.** The survivor count was 2 of 6.

**Q.** And the survivor count (dose: 400.0 mg/kg/injection, schedule: Q04DX003 (ip), vehicle: saline with Tween-80)?
**A.** Its survivor count is 0 of 6.

**Q.** `O=[N+]([O-])c1cc2c(cc1/C=N/N=C1c3ccccc3-c3ccccc31)OCO2` was tested. Which survivor count (dose: 300.0 mg/kg/injection, schedule: Q01DX001 (ip), vehicle: other) did it give?
**A.** Its survivor count is 6 of 6.
